PubChem BioAssay AID1259405, NCATS – 2018

Test: 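Silenced genes that increase secreted GFP made by CHO cells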 (primary screen)
Cells: Chinese hamster CHO-K1 ovary cells with stable secreted eGFP expression
Reagent: single siRNA against mouse genes, 0.8 pmol siRNA per well (2 µl of 400 nM stock)
Duration: 3 days
Measurement: 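Percent of the per-plate non-targeting control median for intracellular GFP per well by laser scanning cytometry and for cell viability by ATP luminescence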
Direction: GFP, % of control: higher = more GFP per well, higher productivity; viability (ATP), % of control: higher = more viable cells (more ATP)
Rule for the call: 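a knock-down is called active if GFP reaches 120% or more of non-targeting control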
The deposit covers about 50,000 reagents; this is an unselected part. In the full data, about 4,000 (8%) got an active call. 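Mouse siRNA library applied to hamster cells; one well for each siRNA.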 A number with no mark means an inactive call. The numbers tell different reagents against one gene apart.

For Prmt9 #1, what does the deposit list?
GFP, % of control: 64.9; viability (ATP), % of control: 82.8

What did the screen give for Prmt9 #2?
GFP, % of control: 81.2; viability (ATP), % of control: 71.4

With Prmt9 #3, what does the deposit list?
GFP, % of control: 70.1; viability (ATP), % of control: 99.1

What did the screen give for Cux1 #1?
GFP, % of control: 40.5; viability (ATP), % of control: 87.6

How did the screen score Cux1 #2?
GFP, % of control: 75.9; viability (ATP), % of control: 47.1

For Cux1 #3, what does the deposit list?
GFP, % of control: 112; viability (ATP), % of control: 109

What is on record for Meis3 #1?
GFP, % of control: 73.7; viability (ATP), % of control: 66.1

How did the screen score Meis3 #2?
GFP, % of control: 70.6; viability (ATP), % of control: 86.1

What did the screen give for Meis3 #3?
GFP, % of control: 59.9; viability (ATP), % of control: 69.4

What did the screen give for Pcnp #1?
GFP, % of control: 43.7; viability (ATP), % of control: 58.4

What did the screen give for Pcnp #2?
GFP, % of control: 46.4; viability (ATP), % of control: 60.1

With Pcnp #3, what does the deposit list?
GFP, % of control: 70.2; viability (ATP), % of control: 91.2

For Lig3 #1, how do the results read?
GFP, % of control: 77.5; viability (ATP), % of control: 81.2

What is on record for Lig3 #2?
GFP, % of control: 31.9; viability (ATP), % of control: 34.6

Which result is listed for Lig3 #3?
GFP, % of control: 70.8; viability (ATP), % of control: 73.4

What is on record for Nmb #1?
GFP, % of control: 57.7; viability (ATP), % of control: 47.8

With Nmb #2, what does the deposit list?
GFP, % of control: 81.3; viability (ATP), % of control: 85.1

How did the screen score Nmb #3?
GFP, % of control: 75.1; viability (ATP), % of control: 46.3

Which result is listed for Kmt5a #1?
GFP, % of control: 95.9; viability (ATP), % of control: 89

With Kmt5a #2, how do the results read?
GFP, % of control: 113; viability (ATP), % of control: 91.4

What is on record for Kmt5a #3?
GFP, % of control: 67.7; viability (ATP), % of control: 87.7

For Ripor2 #1, how do the results read?
GFP, % of control: 59.7; viability (ATP), % of control: 61.8

Which result is listed for Ripor2 #2?
GFP, % of control: 73.1; viability (ATP), % of control: 88.2

What is on record for Ripor2 #3?
GFP, % of control: 114; viability (ATP), % of control: 99.8

For Syt14 #1, what was measured?
GFP, % of control: 93.1; viability (ATP), % of control: 108

Which result is listed for Syt14 #2?
GFP, % of control: 69.2; viability (ATP), % of control: 85.8

With Or4k49 #1, what does the deposit list?
GFP, % of control: 84; viability (ATP), % of control: 88.7

With Or4k49 #2, what does the deposit list?
GFP, % of control: 69.8; viability (ATP), % of control: 86.2

For Or4k49 #3, how do the results read?
GFP, % of control: 53.8; viability (ATP), % of control: 98.2

Which result is listed for Sult1d1 #1?
GFP, % of control: 106; viability (ATP), % of control: 113

How did the screen score Sult1d1 #2?
GFP, % of control: 88.1; viability (ATP), % of control: 86.6

What did the screen give for Sult1d1 #3?
GFP, % of control: 52.2; viability (ATP), % of control: 62.1

For Pp2d1 #1, what does the deposit list?
GFP, % of control: 114; viability (ATP), % of control: 70.3

For Pp2d1 #2, what was measured?
GFP, % of control: 77.3; viability (ATP), % of control: 73.5

What did the screen give for Pp2d1 #3?
GFP, % of control: 62.2; viability (ATP), % of control: 101

For Rsph9 #1, what was measured?
GFP, % of control: 59; viability (ATP), % of control: 104

For Rsph9 #2, what does the deposit list?
GFP, % of control: 57; viability (ATP), % of control: 37.6

With Rsph9 #3, how do the results read?
GFP, % of control: 79.9; viability (ATP), % of control: 80.8

With Izumo1 #1, what was measured?
GFP, % of control: 65.8; viability (ATP), % of control: 84.2

With Izumo1 #2, what does the deposit list?
GFP, % of control: 54.3; viability (ATP), % of control: 86

What did the screen give for Izumo1 #3?
GFP, % of control: 86.4; viability (ATP), % of control: 88.8

With Tomm40l #1, how do the results read?
GFP, % of control: 55.6; viability (ATP), % of control: 58.9

How did the screen score Tomm40l #2?
GFP, % of control: 111; viability (ATP), % of control: 109

With Tomm40l #3, what was measured?
GFP, % of control: 103; viability (ATP), % of control: 140

What is on record for Or9s13 #1?
GFP, % of control: 66; viability (ATP), % of control: 91.8

For Or9s13 #2, how do the results read?
GFP, % of control: 76; viability (ATP), % of control: 52.6

What did the screen give for Or9s13 #3?
GFP, % of control: 81.3; viability (ATP), % of control: 83.3

With B4galt1 #1, how do the results read?
GFP, % of control: 115; viability (ATP), % of control: 111

For B4galt1 #2, what was measured?
GFP, % of control: 75.1; viability (ATP), % of control: 108

For B4galt1 #3, what was measured?
GFP, % of control: 93.9; viability (ATP), % of control: 107

With Sdhb #1, how do the results read?
GFP, % of control: 79.7; viability (ATP), % of control: 101

How did the screen score Sdhb #2?
GFP, % of control: 31.2; viability (ATP), % of control: 47.8

How did the screen score Sdhb #3?
GFP, % of control: 85; viability (ATP), % of control: 72

Entries listed so far whose gene name starts with S or s:
Syt14 #1 | GFP, % of control: 93.1; viability (ATP), % of control: 108
Syt14 #2 | GFP, % of control: 69.2; viability (ATP), % of control: 85.8
Sult1d1 #1 | GFP, % of control: 106; viability (ATP), % of control: 113
Sult1d1 #2 | GFP, % of control: 88.1; viability (ATP), % of control: 86.6
Sult1d1 #3 | GFP, % of control: 52.2; viability (ATP), % of control: 62.1
Sdhb #1 | GFP, % of control: 79.7; viability (ATP), % of control: 101
Sdhb #2 | GFP, % of control: 31.2; viability (ATP), % of control: 47.8
Sdhb #3 | GFP, % of control: 85; viability (ATP), % of control: 72
